Experimental data: PubChem BioAssay AID1508615 (Milbrandt Lab, Department of Genetics, Washington …, 2020)
In all, about 1,600 compounds went through this assay and about 20 (1%) were called active.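 The calls were made as follows: active = ratio of uncleaved NAD to its breakdown product ADP-ribose above 4, meaning the enzyme was inhibited; inactive = the rest.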 This is one part of the list.

Sequences of proteins named here, by UniProt entry; tags and fusion partners are left off. A change or cut given only in a name is not applied to a line headed by its entry.
UniProt Q6SZW1: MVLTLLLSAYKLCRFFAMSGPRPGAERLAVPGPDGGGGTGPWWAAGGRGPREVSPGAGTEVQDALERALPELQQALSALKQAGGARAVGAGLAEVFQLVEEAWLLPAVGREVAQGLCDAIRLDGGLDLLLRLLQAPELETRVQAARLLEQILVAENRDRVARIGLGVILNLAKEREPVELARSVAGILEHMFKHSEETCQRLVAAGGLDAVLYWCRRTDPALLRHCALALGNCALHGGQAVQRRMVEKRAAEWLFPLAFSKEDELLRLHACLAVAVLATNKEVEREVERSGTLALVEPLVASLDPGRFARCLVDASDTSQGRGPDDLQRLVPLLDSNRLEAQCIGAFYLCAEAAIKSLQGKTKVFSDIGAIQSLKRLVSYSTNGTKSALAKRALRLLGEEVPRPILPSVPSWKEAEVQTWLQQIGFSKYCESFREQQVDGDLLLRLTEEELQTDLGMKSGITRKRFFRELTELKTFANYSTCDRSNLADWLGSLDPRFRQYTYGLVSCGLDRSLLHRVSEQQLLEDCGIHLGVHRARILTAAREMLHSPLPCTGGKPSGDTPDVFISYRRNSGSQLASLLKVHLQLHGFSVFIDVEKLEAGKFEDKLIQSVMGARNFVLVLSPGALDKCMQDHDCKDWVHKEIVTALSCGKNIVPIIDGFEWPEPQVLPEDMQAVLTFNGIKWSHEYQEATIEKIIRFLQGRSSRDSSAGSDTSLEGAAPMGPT

Molecular target: NAD(+) hydrolase SARM1 (Homo sapiens) (UniProt Q6SZW1)
Experiment: SARM1 TIR NADase inhibitors by HPLC, primary screen, cell lysate, HPLC readout (AID 1508615);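 also: substrate NAD at 5 µM with 60 min at 37 °C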
Conditions: HEK293T SAM-TIR lysate, at 5 µM, stronger effect = higher value

| Compound | NAD/ADPR ratio |
| --- | --- |
| O=C(Nc1ccccc1-c1ccccc1)C(=O)Nc1ccccc1-c1ccccc1 | inactive: 3 |
| c1ccc(-c2nnc(-c3ccccc3)nn2)cc1 | inactive: 3 |
| c1ccc(-c2n[nH]c(-c3ccccn3)n2)nc1 | inactive: 3 |
| O=C(c1cccnc1)c1cc(-c2ccccn2)c(=O)n2ccccc12 | inactive: 3 |
| O=C(O)CCCCC1SCC2NC(=O)NC21 (stereo unspecified) | inactive: 3 |
| CCCc1nc(NC(=O)c2ccccc2)nc(NC(=O)c2ccccc2)n1 | inactive: 3 |
| COc1cccc2c1C(CO)N1C(C#N)C3CC(C(=O)O)C(C1C2)N3C (stereo unspecified) | inactive: 3 |
| Nc1cnc(Nc2ccc(Br)cc2)nc1N | inactive: 3 |
| OCCCCc1nccc2c1[nH]c1ccccc12 | inactive: 3 |
| O=C(/C=C/c1ccc2ccccc2n1)c1cc(Cl)ccc1O | inactive: 3 |
| COC(=O)CC1(C(=O)OC)Nc2cc(Cl)c(Cl)cc2S(=O)(=O)N1O (stereo unspecified) | active: 13.5 |
| O=C(/C=C/C(=O)N1CCc2ccccc2C1)N1CCc2ccccc2C1 | inactive: 3 |
| COC(=O)c1cc2c(n1S(=O)(=O)c1ccc(C)cc1)C(=O)C(=O)c1[nH]cc(C(=O)OCc3ccccc3)c1-2 | inactive: 3 |
| CC(C)(C)c1ccc(C(=O)Nc2ccc(S(N)(=O)=O)cc2)cc1 | inactive: 3 |
| COc1ccc(OC)c(NC(=O)c2cc3oc4ccccc4c3cc2O)c1 | inactive: 3 |
| Clc1nc(NCCc2ccccc2)c2cn[nH]c2n1 | inactive: 2.8 |
| Cn1ncc2c(Nc3ccc([N+](=O)[O-])cc3)nc(Cl)nc21 | inactive: 3 |
| O=C1C2CC3N1CCC31c3ccccc3-n3c1c2ccc3=O (stereo unspecified) | inactive: 3 |
| Cc1nc(/N=C(\N)N(C)C)[nH]c(=O)c1C | inactive: 3 |
| Cc1nc2nc(C(F)(F)F)[nH]c2nc1C | inactive: 3 |
| O=C(Nc1ccc(Cl)c(Cl)c1)Nc1ccc([N+](=O)[O-])cn1 | inactive: 3 |
| O=C1CSCc2nc3ccccc3n21 | inactive: 3 |
| Cc1ccc(-c2cc(C(=O)O)c3ccccc3n2)c(C)c1 | inactive: 3 |
| Clc1nnc(NC2CCCCC2)c(Cl)c1Cl | inactive: 3 |

Among those listed so far, 5 contain sulfur:

| Compound | NAD/ADPR ratio |
| --- | --- |
| O=C(O)CCCCC1SCC2NC(=O)NC21 (stereo unspecified) | inactive: 3 |
| COC(=O)CC1(C(=O)OC)Nc2cc(Cl)c(Cl)cc2S(=O)(=O)N1O (stereo unspecified) | active: 13.5 |
| COC(=O)c1cc2c(n1S(=O)(=O)c1ccc(C)cc1)C(=O)C(=O)c1[nH]cc(C(=O)OCc3ccccc3)c1-2 | inactive: 3 |
| CC(C)(C)c1ccc(C(=O)Nc2ccc(S(N)(=O)=O)cc2)cc1 | inactive: 3 |
| O=C1CSCc2nc3ccccc3n21 | inactive: 3 |

More records

| Compound | NAD/ADPR ratio |
| --- | --- |
| COC(=O)C(=Cc1ccccc1[N+](=O)[O-])C(=O)OC | inactive: 3 |
| COc1ccc2c3c([nH]c2c1)C1CC2C(CC(O)C(OC)C2CO)CN1CC3 (stereo unspecified) | inactive: 3 |
| C=CCNC(=O)C1COc2ccccc2O1 (stereo unspecified) | inactive: 3 |
| Cn1c2ccccc2c2ccc3c(c21)C(=O)C=CC3=O | active: 12.5 |
| Cc1cc2c3ccccc3ncn2n1 | inactive: 3 |
| CCOC(=O)c1c(C)nc(C)c(C(=O)OCC)c1-c1cccnc1 | inactive: 3 |
| c1ccc2c(c1)Nc1ccncc1S2 | inactive: 3 |
| Cc1cc2c(c(C#N)c1C)NC=NC2C (stereo unspecified) | inactive: 3 |
| CN(C)c1ccc(N=Nc2cccc3ccoc23)cc1 | inactive: 3 |
| Cn1c(N)c(N=Nc2ccc(S(N)(=O)=O)cc2)c(=O)n(C)c1=O | inactive: 3 |
| N=c1ccn2c(n1)OC1C(O)C(CO)OC12 (stereo unspecified) | inactive: 3 |
| COC(=O)c1ccc(Cn2cnc3c(Cl)ncnc32)cc1 | inactive: 3 |
| CC(C)CCCCCCCCCCCCC(=O)NCC(=O)NC1C(C)OC(Nc2ncnc3nc[nH]c23)C(O)C1O (stereo unspecified) | inactive: 3 |
| CCCNC(=S)Nc1ccccc1 | inactive: 3 |
| O=[N+]([O-])c1ccc2c(c1)S(=O)c1ccccc1-2 (stereo unspecified) | inactive: 3 |
| CN1CCN(C2=NCCO2)CC1 | inactive: 3 |
| CC1=Nc2ccccc2/C1=C\c1c(C)[nH]c2ccccc12 | inactive: 3 |
| CN1CCC(n2[nH]c(-c3ccccc3)c(Cc3ccccc3)c2=O)CC1 | inactive: 3 |
| c1coc(CNc2ncnc3[nH]ncc23)c1 | inactive: 3 |
| O=C1NC(=S)S/C1=C\c1ccccc1C(=O)O | inactive: 3 |
| N#CN=C(N)c1ccccc1 | inactive: 3 |
| O=C1c2cccc(Oc3ccccc3)c2C(=O)c2cccc(Oc3ccccc3)c21 | inactive: 3 |
| COC(=O)N1C2CCCCC2=NN(c2ccccc2)N1C(=O)OC (stereo unspecified) | inactive: 3 |
| CCOc1ccc(NC(=O)c2cc3ccccc3cc2O)cc1 | inactive: 3 |

| Compound | NAD/ADPR ratio |
| --- | --- |
| CCOC(=O)Cc1csc2nc(-c3ccccc3)nn12 | inactive: 1.9 |
| CCCCCCCC1(C)NC(=O)NC1=O (stereo unspecified) | inactive: 3 |
| Cc1c2cnccc2c(C)c2c1c1ccccc1n2CCOC(=O)c1ccccc1 | inactive: 3 |
| Cc1nc(C(N)=O)nc2ccccc12 | inactive: 3 |
| C(=N\n1cnnc1)/c1ccc2c(c1)CCC2 | inactive: 3 |
| OC(COc1cccc2ccccc12)CN1CCN(c2ccccc2Cl)CC1 (stereo unspecified) | inactive: 3 |
| O=c1[nH]c2c(cnn2-c2ccc(Cl)cc2)c(=O)n1-c1cccc(Cl)c1 | inactive: 3 |
| CCN(CC)CCN=c1c(C)nc(C#N)c(N)n1O | inactive: 3 |
| CSc1c(N(C)C)c(=O)c1=S | inactive: 3 |
| Cc1ccccc1NC(=O)C(=O)Nc1ccccc1C | inactive: 3 |
| O=c1cc(CO)[nH]nc1CO | inactive: 3 |
| CN(C)c1nc(=NCc2ccco2)ss1 | active: 9.7 |
| Cn1ncc2c(Nc3ccccc3Cl)nc(Nc3ccccc3Cl)nc21 | inactive: 3 |
| CN(C)c1ccc2c(c1)Sc1cc(N(C)C)ccc1N2C(=O)c1ccccc1 | inactive: 3 |
| CC1=C(c2ccccc2)C=NNCC1=O | inactive: 3 |
| O=C(Nc1cccc2c1N(C(=O)c1ccco1)CCC2)c1ccco1 | inactive: 3 |
| CCC(C)Nc1nc2c(c(=O)n(C)c(=O)n2C)n1C (stereo unspecified) | inactive: 3 |
| O=[N+]([O-])c1[nH]cnc1/C=C/c1ccccc1 | inactive: 3 |
| CC(O)c1nc2c(c(=O)n(C)c(=O)n2C)n1C (stereo unspecified) | inactive: 3 |
| NC(=O)c1ccccc1OCC(=O)Nc1ccc(Cl)c(Cl)c1 | inactive: 3 |
| O=C(NC(=S)Nc1cccc2c(O)cccc12)c1cccc(Br)c1 | inactive: 3 |
| CCOc1cc2c(Cl)ncnc2c(OCC)c1OCC | inactive: 3 |
| CCOC(=O)Nc1ccc2nc(N3CCCCCC3)sc2c1 | inactive: 3 |
| CC(C)(C)c1ccc(OC(=O)c2ccccc2)cc1 | inactive: 3 |

| Compound | NAD/ADPR ratio |
| --- | --- |
| Cn1nc(SCc2ccccc2)c(=O)n(C(c2ccccc2)c2ccccc2)c1=O | inactive: 3 |
| O=C(c1ccccc1)C1C(c2ccccc2)C1[N+](=O)[O-] (stereo unspecified) | active: 5.3 |
| NC(=O)c1cc(C(N)=O)nc(Cl)n1 | inactive: 3 |
| NS(=O)(=O)c1cc2c(cc1Cl)NC(Cc1ccccc1)NS2(=O)=O (stereo unspecified) | inactive: 3 |
| Cc1ccc(N2CCN(CC(O)COc3cccc(C)c3)CC2)cc1 (stereo unspecified) | inactive: 3 |
| CNC1(C(N)=O)CCNCC1 | inactive: 3 |
| O=C1CSC(c2cccs2)N1c1nncs1 (stereo unspecified) | inactive: 3 |
| COc1cc(C2c3cc4c(cc3C(OC3OC5COC(c6cccs6)OC5C(O)C3O)C3COC(=O)C23)OCO4)cc(OC)c1O (stereo unspecified) | inactive: 3 |
| O=[N+]([O-])c1cc2cccnc2c2ncccc12 | inactive: 3 |
| CCCn1cnc2c(Sc3c([N+](=O)[O-])ncn3C)nc(N)nc21 | inactive: 3 |
| CN(/N=N/c1nc[nH]c1C(=O)NN)C1CCCCC1 | inactive: 3 |
| CC(=O)Oc1ccc(OC(C)=O)c2c1CC(C)=C(C)C2 | inactive: 3 |
| CCOC(=O)c1cc(-c2ccccc2)nc2ccc(C)cc12 | inactive: 3 |
| CCOc1nsc(OCC)n1 | inactive: 3 |
| COc1cccc(OCC(O)CN2CCN(c3ccc(Cl)cc3)CC2)c1 (stereo unspecified) | inactive: 3 |
| S=C(SCc1cc(Cl)cc2c1OCOC2)N1CCSCC1 | inactive: 2.4 |
| C=CCN1CCN(c2ccncc2S(=O)(=O)N2CCN(C)CC2)CC1 | inactive: 3 |
| CCOC(=O)C(C)c1c(C(=O)c2ccc(C)nc2)c2ccccc2n1C (stereo unspecified) | inactive: 3 |
| CN(C)c1ccc(/C=N/NC(=O)c2cnc3ccccc3c2)cc1 | inactive: 3 |
| O=c1cc(-c2ccccc2)oc2ccc(O)cc12 | inactive: 3 |
| O=C1CCCc2cc3c(cc21)CC1(C3)Cc2cc3c(cc2C1)C(=O)CCC3 | inactive: 3 |
| S=c1[nH]c2ccc(Cl)cc2s1 | inactive: 3 |
| O=c1[nH]c2nc(Cl)nc(Cl)c2[nH]1 | inactive: 3 |
| C(=C\CSc1ccccn1)/CSc1ccccn1 | inactive: 3 |

| Compound | NAD/ADPR ratio |
| --- | --- |
| O=C(Nc1ccc(Cl)c([N+](=O)[O-])c1)Nc1nc2ccccc2s1 | inactive: 3 |
| Cc1cc(NC(=O)OC(C)C)ccc1-c1ccc(NC(=O)OC(C)C)cc1C | inactive: 3 |
| CN(C(=O)c1ccncc1)c1ccccc1 | inactive: 3 |
| CC(C)c1ccc(-c2nc3ccccc3s2)cc1 | inactive: 3 |
| O=C(O)CSc1nc2ccccc2s1 | inactive: 3 |
| CN(C)c1nc(Cl)nc2c1nc(Cl)n2C1CCCCO1 (stereo unspecified) | inactive: 3 |
| Nn1c(Cc2ccccc2)nnc1Cc1ccccc1 | inactive: 3 |
| CCOC(=O)c1cc(OCC)c2c(ccc3ccccc32)n1 | inactive: 3 |
| O=Nc1c(-c2cccc([N+](=O)[O-])c2)nc2ncccn12 | inactive: 3 |
| Cc1ccc([N+](=O)[O-])cc1NC(=O)Nc1cccc(F)c1 | inactive: 3 |
| NC(CSC1(c2cccc3ccccc23)c2ccccc2-c2ccccc21)C(=O)O (stereo unspecified) | inactive: 3 |
| CS/C(=N\S(=O)(=O)c1ccccc1)NNC(=O)c1c(-c2c(Cl)cccc2Cl)noc1C | inactive: 3 |
| S=c1[nH]cc2cnccn12 | inactive: 3 |
| [NH-]c1ncnc2c1N=C[N+]2=CC=CCO | inactive: 3 |
| CSc1nc2cc(S(=O)(=O)N3CCCCC3)ccc2s1 | inactive: 3 |
| ClCC(CNCc1ccccc1)c1ccccc1 (stereo unspecified) | inactive: 3 |
| O=C(O)c1ccccc1-n1c2ccccc2c2ccccc21 | inactive: 3 |
| COc1c(C=O)c2c(c(OC)c1OC)-c1ccc(OC)c(=O)cc1C(NC(C)=O)CC2 (stereo unspecified) | inactive: 3 |
| CN(C)Cc1cc(C(F)(F)F)ccc1C(O)(c1ccccc1)c1ccccc1 | inactive: 3 |
| O=c1ccnc(Nc2ccc(Cl)cc2)[nH]1 | inactive: 3 |
